One molecule from paper PMC8748430 can be followed below.

These are yes or no findings as the source states them, for the method shown. Some results given as binding are weak or reduced against the parent protein; the word gives no strength. Sequences can lack the tags named with a protein.

The target in this assay is T1, recombinant mouse NPR-C/NPR3 Fc Chimera protein (mouse) (UniProt P70180).
T1 sequence: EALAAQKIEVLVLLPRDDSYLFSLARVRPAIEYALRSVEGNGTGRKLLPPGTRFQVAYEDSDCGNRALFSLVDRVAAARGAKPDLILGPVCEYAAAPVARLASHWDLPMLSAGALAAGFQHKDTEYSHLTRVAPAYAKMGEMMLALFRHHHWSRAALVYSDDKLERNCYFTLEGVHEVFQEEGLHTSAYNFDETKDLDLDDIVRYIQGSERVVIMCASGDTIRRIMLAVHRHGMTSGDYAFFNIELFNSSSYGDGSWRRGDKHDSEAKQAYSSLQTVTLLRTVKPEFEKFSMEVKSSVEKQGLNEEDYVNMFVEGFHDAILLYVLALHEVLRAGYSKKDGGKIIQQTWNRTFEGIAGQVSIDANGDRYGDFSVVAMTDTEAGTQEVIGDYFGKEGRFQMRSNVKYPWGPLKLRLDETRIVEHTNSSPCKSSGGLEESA
Nature of the assay: ELISA; competition ELISA: wells of a 96-well high-binding plate coated with 100 ng mouse NPR-C Fc chimera, blocked with 1% BSA/PBS; 100 µl of 200 ng/ml Musclin alone or with increasing amounts of CNP, overnight at 4 °C; bound Musclin detected with anti-Musclin antibody and HRP secondary antibody; relative binding from a Musclin standard curve; both purified. On the technique in general: An ELISA detects its analyte on a solid surface through an enzyme-linked reagent.

B1: Musclin (ligand, UniProt P61364 26-130)
chain: FSVDLASQEFGTASLQSPPTAREEKSATELSAKLLRLDDLVSLENDVFETKKKRSFSGFGSPLDRLSAGSVEHRGKQRKAVDHSKKRFGIPMDRIGRNRLSSSRG
As for B1, the binding entry is listed as “binds”.
